This is an account of results in publication doi:10.1101/2022.06.07.495079.

Amino acid sequences for entries named in this document (tags omitted).
UniProt P19525: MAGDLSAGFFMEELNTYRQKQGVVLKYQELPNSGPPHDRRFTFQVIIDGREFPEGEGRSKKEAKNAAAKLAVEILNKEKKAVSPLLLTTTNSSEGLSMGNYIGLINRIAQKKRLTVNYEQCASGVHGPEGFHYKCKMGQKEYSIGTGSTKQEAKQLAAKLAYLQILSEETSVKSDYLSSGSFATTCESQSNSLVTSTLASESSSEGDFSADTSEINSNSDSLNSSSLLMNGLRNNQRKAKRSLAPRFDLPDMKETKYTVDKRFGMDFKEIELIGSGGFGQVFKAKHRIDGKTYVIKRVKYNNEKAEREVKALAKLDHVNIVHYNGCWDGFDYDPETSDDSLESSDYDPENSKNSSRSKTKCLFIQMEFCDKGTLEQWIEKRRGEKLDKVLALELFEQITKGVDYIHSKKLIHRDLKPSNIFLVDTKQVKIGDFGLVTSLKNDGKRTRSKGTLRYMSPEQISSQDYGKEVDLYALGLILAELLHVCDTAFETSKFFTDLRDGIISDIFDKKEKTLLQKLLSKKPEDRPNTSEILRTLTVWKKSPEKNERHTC
UniProt P19474: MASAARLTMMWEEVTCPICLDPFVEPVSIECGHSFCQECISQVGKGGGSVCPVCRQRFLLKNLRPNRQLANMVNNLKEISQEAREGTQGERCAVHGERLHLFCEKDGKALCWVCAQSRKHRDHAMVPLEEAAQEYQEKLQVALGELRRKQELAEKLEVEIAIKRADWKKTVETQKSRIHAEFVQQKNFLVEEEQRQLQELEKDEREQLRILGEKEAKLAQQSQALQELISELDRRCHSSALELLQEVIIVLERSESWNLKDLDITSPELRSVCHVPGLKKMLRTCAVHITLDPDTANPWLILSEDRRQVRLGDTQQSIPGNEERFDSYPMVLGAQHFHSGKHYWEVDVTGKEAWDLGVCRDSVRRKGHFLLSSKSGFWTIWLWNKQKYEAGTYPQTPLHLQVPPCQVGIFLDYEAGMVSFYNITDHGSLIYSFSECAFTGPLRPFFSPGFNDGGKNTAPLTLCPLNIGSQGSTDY
UniProt P05198: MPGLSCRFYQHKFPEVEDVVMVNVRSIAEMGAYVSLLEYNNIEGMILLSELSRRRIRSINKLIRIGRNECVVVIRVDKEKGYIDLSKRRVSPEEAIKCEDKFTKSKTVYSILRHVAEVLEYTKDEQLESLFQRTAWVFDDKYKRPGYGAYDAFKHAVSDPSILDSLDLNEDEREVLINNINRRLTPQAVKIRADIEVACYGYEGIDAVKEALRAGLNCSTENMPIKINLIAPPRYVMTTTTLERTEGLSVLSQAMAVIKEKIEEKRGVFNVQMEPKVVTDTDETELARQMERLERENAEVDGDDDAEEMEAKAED
UniProt P62136: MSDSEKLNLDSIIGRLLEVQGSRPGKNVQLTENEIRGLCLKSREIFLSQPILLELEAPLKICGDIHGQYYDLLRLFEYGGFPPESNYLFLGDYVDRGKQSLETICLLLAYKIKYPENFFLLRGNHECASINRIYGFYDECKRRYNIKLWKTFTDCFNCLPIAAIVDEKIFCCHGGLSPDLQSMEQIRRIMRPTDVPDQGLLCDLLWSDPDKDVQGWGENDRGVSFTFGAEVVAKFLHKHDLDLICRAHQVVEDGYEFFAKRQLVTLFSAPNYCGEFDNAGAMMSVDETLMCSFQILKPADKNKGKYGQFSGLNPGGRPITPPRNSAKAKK

Results are given in words; binding and its absence hold for the method and conditions named. In cells and extracts the contact can be indirect. Some results given as binding are weak or reduced against the parent protein; the word gives no strength.

Common to all, as to assay: co-IP
The target in test [1] is endogenous PKR (A549 cells) (human (endogenous in A549)) (UniProt P19525).
In test [2] the target is PKR, transfected in HEK293T (Fig 4C; plasmid not named) (human (cDNA from HLCZ01 hepatoma cells)) (UniProt P19525).
The target in test [3] is TRIM21, transfected in HEK293T (Fig 4C; plasmid not named) (human (cDNA from HLCZ01 hepatoma cells)) (UniProt P19474).
Test [4] deals with Flag-tagged PKR (p3xFlag-CMV-PKR) (human (cDNA from HLCZ01 hepatoma cells)) (UniProt P19525).
The target of test [5] is endogenous TRIM21 (A549 cells) (human (endogenous in A549)) (UniProt P19474).
Another test concerns the target eIF2α (pcDNA3.1a-eIF2α) (UniProt P05198).

On to “endogenous TRIM21 (A549 cells) (from UniProt P19474 1-475)”, for which, in test [1], the binding result is given as “binds”. In the case of “PP1α, transfected in HEK293T (Fig 4C; plasmid not named) (from UniProt P62136 1-330) (enzyme)”, the binding entry in test [2] and in test [3] was “binds” each time. Regarding “V5-tagged TRIM21 (pcDNA3.1a-TRIM21) (from UniProt P19474 1-475)”, in test [4], the binding result was “binds”. As to “endogenous PP1α (A549 cells) (from UniProt P62136 1-330) (enzyme)”, the binding result in test [5] and in test [1] was “binds” in each case. Consider “Flag-tagged TRIM21 (p3xFlag-CMV-TRIM21) (from UniProt P19474 1-475)”, for which, in the test with eIF2α (pcDNA3.1a-eIF2α), the binding result is reported as “no binding”.
